In the series the target is T1, ZitR (ZitRMG), holo Zn(II) form S2A,A4R,D8E (Lactococcus lactis subsp. cremoris MG1363) (UniProt A2RNS2).
T1 sequence (looked up): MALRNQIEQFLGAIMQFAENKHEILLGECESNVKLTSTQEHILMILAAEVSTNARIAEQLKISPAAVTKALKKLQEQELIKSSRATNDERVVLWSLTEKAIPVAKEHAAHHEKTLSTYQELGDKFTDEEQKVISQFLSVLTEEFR
Put plainly: ITC. The following applies: 100 uM ZnSO4, ITC: 20 mM Tris-HCl pH 7.0, 150 mM NaCl, ~20 uM ZitR titrated with 270 uM dsDNA, temperature not stated, recombinant protein, residues 1-145, protein details: untagged, letters put together from the description.

Chains of the proteins cited; added tags and fusions are not shown. Lines headed by an entry give the natural chain unless they say otherwise; changes in a name come on top.
UniProt A2RNS2: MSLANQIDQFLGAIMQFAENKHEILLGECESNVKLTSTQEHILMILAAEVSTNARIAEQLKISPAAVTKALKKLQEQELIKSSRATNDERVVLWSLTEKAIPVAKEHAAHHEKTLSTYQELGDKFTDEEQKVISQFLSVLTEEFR

For at least one entry, the source does not settle the construct or the ends of the probe. Where a protein sequence is shown, tags need not be part of it.

As to “AATGTTAACTGGTTGACAT / TATGTCAACCAGTTAACAT [Palindrome 1 of Pzit, -35 box]”, the Kd was found to be 200 nM.

For the sequence “ATAATTAACCAGTAAACTAA / TTTAGTTTACTGGTTAATTA [Palindrome 2 of Pzit, -10 box]”, the Kd turned out to be 600 nM.

As usually defined, the Kd is the constant that tells how readily two partners part at equilibrium.

The record behind these values is publication PMC6372160, “Biophysical and structural characterization of a zinc-responsive repressor of the MarR superfamily” (PLoS ONE, 2019).
